Results are given in words; binding and its absence hold for the method and conditions named. Binding seen in cells or lysates may run through a third protein. A yes stands for co-enrichment or nearness to the bait. Other partners may have been found.
Target: HDAC6 overexpressed in HCT116 cells (bait of the mass spectrometry) (UniProt Q9UBN7)
Assay: affinity purification with mass spectrometry; HCT116 cells overexpressing HDAC6 against a control group; proteins that interact with HDAC6 detected by protein mass spectrometry

The chains behind the UniProt entries cited, without tags or fusion partners.
UniProt Q9UBN7: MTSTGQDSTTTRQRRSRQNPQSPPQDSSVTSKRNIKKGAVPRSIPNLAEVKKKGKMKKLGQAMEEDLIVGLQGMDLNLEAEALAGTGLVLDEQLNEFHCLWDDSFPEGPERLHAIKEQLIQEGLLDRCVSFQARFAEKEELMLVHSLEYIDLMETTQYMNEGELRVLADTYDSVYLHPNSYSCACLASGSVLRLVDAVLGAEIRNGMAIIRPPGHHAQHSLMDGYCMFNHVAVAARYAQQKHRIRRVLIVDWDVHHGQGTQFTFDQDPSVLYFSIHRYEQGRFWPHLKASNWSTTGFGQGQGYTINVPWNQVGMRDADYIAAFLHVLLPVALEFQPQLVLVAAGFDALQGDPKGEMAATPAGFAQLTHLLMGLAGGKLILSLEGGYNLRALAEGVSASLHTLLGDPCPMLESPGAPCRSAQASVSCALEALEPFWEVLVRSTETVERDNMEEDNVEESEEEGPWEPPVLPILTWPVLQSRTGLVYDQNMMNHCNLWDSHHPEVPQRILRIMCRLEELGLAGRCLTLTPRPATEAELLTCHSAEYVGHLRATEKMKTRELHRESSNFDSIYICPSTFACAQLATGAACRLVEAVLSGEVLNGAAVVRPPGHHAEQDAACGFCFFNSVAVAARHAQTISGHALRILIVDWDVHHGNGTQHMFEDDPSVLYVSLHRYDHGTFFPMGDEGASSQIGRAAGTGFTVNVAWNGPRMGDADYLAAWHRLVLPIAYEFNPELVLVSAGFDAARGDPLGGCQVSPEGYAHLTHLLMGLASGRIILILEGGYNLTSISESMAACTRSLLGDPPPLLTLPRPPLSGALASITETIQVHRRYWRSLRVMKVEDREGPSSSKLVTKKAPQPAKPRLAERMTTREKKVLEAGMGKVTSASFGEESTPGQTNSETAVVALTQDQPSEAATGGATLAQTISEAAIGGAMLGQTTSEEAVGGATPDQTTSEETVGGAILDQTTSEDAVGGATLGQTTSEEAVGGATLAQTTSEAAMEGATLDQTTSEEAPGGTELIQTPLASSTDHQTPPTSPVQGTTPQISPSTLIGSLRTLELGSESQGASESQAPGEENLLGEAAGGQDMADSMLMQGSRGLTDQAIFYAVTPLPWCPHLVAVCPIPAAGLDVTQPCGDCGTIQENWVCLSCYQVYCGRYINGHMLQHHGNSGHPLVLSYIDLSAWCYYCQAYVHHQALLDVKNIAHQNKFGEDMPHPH

binding: binds
B1: TAK1, endogenous in HCT116 cells (enzyme, UniProt O43318 1-606)
chain: MSTASAASSSSSSSAGEMIEAPSQVLNFEEIDYKEIEVEEVVGRGAFGVVCKAKWRAKDVAIKQIESESERKAFIVELRQLSRVNHPNIVKLYGACLNPVCLVMEYAEGGSLYNVLHGAEPLPYYTAAHAMSWCLQCSQGVAYLHSMQPKALIHRDLKPPNLLLVAGGTVLKICDFGTACDIQTHMTNNKGSAAWMAPEVFEGSNYSEKCDVFSWGIILWEVITRRKPFDEIGGPAFRIMWAVHNGTRPPLIKNLPKPIESLMTRCWSKDPSQRPSMEEIVKIMTHLMRYFPGADEPLQYPCQYSDEGQSNSATSTGSFMDIASTNTSNKSDTNMEQVPATNDTIKRLESKLLKNQAKQQSESGRLSLGASRGSSVESLPPTSEGKRMSADMSEIEARIAATTAYSKPKRGHRKTASFGNILDVPEIVISGNGQPRRRSIQDLTVTGTEPGQVSSRSSSPSVRMITTSGPTSEKPTRSHPWTPDDSTDTNGSDNSIPMAYLTLDHQLQPLAPCPNSKESMAVFEQHCKMAQEYMKVQTEIALLLQRKQELVAELDQDEKDQQNTSRLVQEHKKLLDENKSLSTYYQQCKKQLEVIRSQQQKRQGTS
